# In PubChem BioAssay AID2551 (National Center for Advancing Translational Sciences (NCATS), 2010):
# The chains behind the UniProt entries cited, without tags or fusion partners. Where a name states a change or a piece, a line headed by the entry shows the natural chain unless it says otherwise.
# UniProt P51450: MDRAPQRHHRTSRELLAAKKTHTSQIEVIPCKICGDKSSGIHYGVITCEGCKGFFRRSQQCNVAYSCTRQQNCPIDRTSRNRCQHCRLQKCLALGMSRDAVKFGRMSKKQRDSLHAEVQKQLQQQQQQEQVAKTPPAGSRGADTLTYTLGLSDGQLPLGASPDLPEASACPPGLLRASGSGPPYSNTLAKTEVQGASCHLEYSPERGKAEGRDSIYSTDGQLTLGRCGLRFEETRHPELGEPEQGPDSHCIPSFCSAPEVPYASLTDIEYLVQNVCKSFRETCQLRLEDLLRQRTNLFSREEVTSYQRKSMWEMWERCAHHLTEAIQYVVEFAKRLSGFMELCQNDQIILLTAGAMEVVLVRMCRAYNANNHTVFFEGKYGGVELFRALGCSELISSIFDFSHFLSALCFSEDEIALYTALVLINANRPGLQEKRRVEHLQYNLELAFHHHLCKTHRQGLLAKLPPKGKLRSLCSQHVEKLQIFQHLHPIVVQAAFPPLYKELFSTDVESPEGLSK
# The campaign covered roughly 310,000 compounds. About 17,000 (5.5%) were called active. The inconclusive results got no clear call from the source; some entries with a clear call stand among them for comparison. The call rests on the fitted dose curve; in most records, active means well fitted inhibition curve with a large enough effect; inconclusive means small, poorly fitted or top-dose-only effect, or effect the other way; inactive means no such curve, though single readings can be large or run the other way. A potency beside an inconclusive call is a rough fit, not a confirmed value.
# Molecular target: Nuclear receptor ROR-gamma (Mus musculus) (UniProt P51450)
# Assay: qHTS for inhibitors of ROR gamma transcriptional activity; further: nearly all actives have a fitted effect of over 60% in size
# Settings: Drosophila S2 Gal4-RORgamma UAS-luciferase reporter, 20 h; activity change, negative = inhibition: at 53.6 µM (top of the series)
# Method in brief: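 Compounds are pin-transferred onto Drosophila Schneider cells expressing a copper-inducible Gal4–ROR gamma transactivation domain fusion. After 1 hr, copper sulfate is added to 700 uM final; luciferase is read 20 hr later.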
# On the % scale 0 is the no-effect control and ±100 the full control effect; potency means the concentration at half of the fitted maximal effect.
Structure (SMILES),"activity change, negative = inhibition",Potency
O=C(N/N=C1/C(=O)c2cccc3cccc1c23)c1ccc(Cl)cc1,inactive: -21%,
Oc1cccc(/C=N/NC(=S)NCCN2CCOCC2)c1O,,active: 7.08 µM
Nc1nonc1-c1noc(CCCCCN2C(=O)c3ccccc3C2=O)n1,,"inconclusive: 0.112 µM [activator, single point]"
COC(=O)Cc1ccc(N(Cc2ccccc2F)S(=O)(=O)c2ccc(C)cc2)cc1,,"inconclusive: 17.8 µM [activator, single point]"
NS(=O)(=O)c1ccc(NC(=O)c2ccc(S(=O)(=O)N3CCc4ccccc43)cc2)cc1,inactive: 32.5%,
O=C(COc1ccccc1)Nc1nc(-c2ccc(S(=O)(=O)N3CCOCC3)cc2)cs1,inactive: 16.9%,
COc1ccccc1N1CCN(CC(=O)Nc2ccc(Cl)c(C(F)(F)F)c2)CC1,,"inconclusive: 35.5 µM [activator, single point]"
CCSc1nc2sc3c(c2c(=O)[nH]1)CCc1ccccc1-3,,"inconclusive: 2.82 µM [inhibitor, single point]"
OC(CN1CCNCC1)Cn1c2ccc(Br)cc2c2cc(Br)ccc21 (centres undefined),,"inconclusive: 35.5 µM [inhibitor, single point]"
COc1ccc(C(=O)N2CCC3(CCCN(c4ccncc4)C3)CC2)cc1,inactive: -4.85%,
O=C(Cn1ccc2ccccc2c1=O)NCCC(=O)N1CCN(c2cccc(C(F)(F)F)c2)CC1,,"inconclusive: 35.5 µM [activator, single point]"
CN(Cc1cn(-c2ccccc2)nc1-c1cc2ccccc2o1)C(=O)CCC(=O)O,,"inconclusive: 8.91 µM [activator, partial curve]"
CCCc1nc(SCC(=O)Nc2ccc(N3CCOCC3)cc2)c2ccccc2n1,,"inconclusive: 35.5 µM [activator, single point]"
CC(C)Sc1nc2c(c(=O)[nH]c(=O)n2C)n1C,,"inconclusive: 12.6 µM [inhibitor, single point]"
O=C(NC(=S)NCC1CCCO1)c1ccc(Cl)cc1 (centres undefined),,active: 11.2 µM
Cc1ccc(NS(=O)(=O)c2ccc(C(=O)N3CCCCCCC3)cc2)cc1,,"inconclusive: 17.8 µM [activator, partial curve]"
O=[N+]([O-])c1ccc(S(=O)(=O)Nc2nc3ccccc3nc2Nc2ccccc2)cc1,,active: 8.91 µM
OC/C(Br)=C(\Br)CO,inactive: 8.67%,
Cc1cc(Cl)cc(Cl)c1OCCOc1cccc2cccnc12,,"inconclusive: 17.8 µM [inhibitor, partial curve, poor fit]"
O=C(NCc1ccco1)c1cccn2c(=O)c3cc4ccccc4cc3nc12,,"inconclusive: 35.5 µM [inhibitor, single point]"
N#Cc1ccc(NC(=O)c2cc(-c3cccs3)on2)cc1,inactive: 1.72%,
CC(=O)c1ccc(N2CCN(c3ccc(C(F)(F)F)cn3)CC2)cc1,,"inconclusive: 11.2 µM [activator, partial curve]"

# Quoted at random: 3 records from the list.
Structure (SMILES),"activity change, negative = inhibition",Potency
Nc1nonc1-c1noc(CCCCCN2C(=O)c3ccccc3C2=O)n1,,"inconclusive: 0.112 µM [activator, single point]"
CC(C)Sc1nc2c(c(=O)[nH]c(=O)n2C)n1C,,"inconclusive: 12.6 µM [inhibitor, single point]"
O=[N+]([O-])c1ccc(S(=O)(=O)Nc2nc3ccccc3nc2Nc2ccccc2)cc1,,active: 8.91 µM

# Following part

Structure (SMILES),"activity change, negative = inhibition",Potency
COc1ccc(N2CCN(c3oc(-c4ccccc4OC)nc3C#N)CC2)cc1,,"inconclusive: 4.47 µM [activator, full curve]"
O=C(c1ccncc1)N(Cc1ccccc1)Cc1nc2ccccc2c(=O)[nH]1,,"inconclusive: 25.1 µM [inhibitor, single point]"
Oc1ccc(/C=N/Nc2cc(N3CCOCC3)nc(N3CCOCC3)n2)cc1O,inactive: -0.654%,
CCN(C(=O)CN1CCN(c2ccccc2OC)CC1)c1c(N)n(Cc2ccccc2)c(=O)[nH]c1=O,,"inconclusive: 0.0045 µM [activator, partial curve, poor fit]"
CS(=O)(=O)N(CCc1ccccc1)CC(=O)NCc1ccc2c(c1)OCO2,,"inconclusive: 22.4 µM [activator, partial curve, poor fit]"
O=C(CCl)N=c1sccn1Cc1ccccc1Cl,,"inconclusive: 14.1 µM [inhibitor, single point]"
Cc1cc(C)c2sc(N(CCN(C)C)C(=O)CCS(=O)(=O)c3ccccc3)nc2c1,,"inconclusive: 11.2 µM [inhibitor, partial curve]"
O=C(Nc1ccccc1C(F)(F)F)N1CCN(c2ccc3nncn3n2)CC1,inactive: -18.8%,
CCCn1c(C(C)NC(=O)c2ccccc2)nc2ccccc21 (centres undefined),,"inconclusive: 31.6 µM [inhibitor, single point]"
O=C(N/N=C/c1ccc(O)cc1)Nc1cccc2nsnc12,,"inconclusive: 11.2 µM [activator, single point]"
N=c1n(CC(=O)c2ccc([N+](=O)[O-])cc2)c2ccccc2n1Cc1ccc(Cl)cc1,,"inconclusive: 8.91 µM [inhibitor, partial curve]"
Cc1occc1C(=O)N1CCN(c2ccc(Cl)c(Cl)c2)CC1,inactive: 10%,
CC(C)Nc1cccnc1N1CCN(C(=O)c2cc3cc(NS(C)(=O)=O)ccc3[nH]2)CC1,,"inconclusive: 14.1 µM [activator, single point]"
COCCn1c(C)cc(C(=O)Cn2nc(C(=O)O)c3ccccc3c2=O)c1C,,active: 5.62 µM
CCC(=O)NNc1nc2c(C)c(C)ccc2s1,,active: 7.94 µM
COc1ccc(C(=O)Nc2ccc3[nH]ncc3c2)cc1OC,,"inconclusive: 31.6 µM [activator, single point]"
O=C(CN(C(=O)CNC(=O)c1ccco1)c1ccc(Cl)c(Cl)c1)NC1CCCCC1,,"inconclusive: 8.91 µM [activator, partial curve]"
OCCNc1nc(-c2ccccc2)c2cc(Br)ccc2n1,,"inconclusive: 10 µM [activator, single point]"
CCN1C(=O)c2cccc3c(S(=O)(=O)Nc4ccc(OC)cc4OC)ccc1c23,,"inconclusive: 28.2 µM [inhibitor, single point]"
COCC(O)CSc1c([N+](=O)[O-])nc(C)n1Cc1ccc(OC)c([N+](=O)[O-])c1 (centres undefined),,"inconclusive: 0.708 µM [activator, single point]"
CCCNC(=S)NNC(=O)c1cc(-c2cccnc2)nc2ccccc12,,"inconclusive: 35.5 µM [inhibitor, single point]"
CCCS(=O)(=O)N1CCN(Cc2ccccc2[N+](=O)[O-])CC1,inactive: 3.6%,
